Experimental data published in PMC7819943, “Rice protein-binding microarrays: a tool to detect cis-acting elements near promoter regions in rice”.
The other results are listed elsewhere or left out.

By UniProt entry, the sequences of proteins in these tests, tags left out.
UniProt Q0JBA9, entry or part of it: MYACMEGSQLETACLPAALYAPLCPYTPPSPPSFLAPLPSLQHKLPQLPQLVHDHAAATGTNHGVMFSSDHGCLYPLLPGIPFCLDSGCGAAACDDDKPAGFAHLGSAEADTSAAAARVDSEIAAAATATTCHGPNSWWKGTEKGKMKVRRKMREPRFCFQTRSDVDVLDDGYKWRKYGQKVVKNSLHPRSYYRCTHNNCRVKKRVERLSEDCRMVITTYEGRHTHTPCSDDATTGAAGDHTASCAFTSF

biological target: OsWRKY34 (Oryza sativa, UniProt Q0JBA9 1-250); test: protein-binding microarray (RPBM); PBS, 2% BSA, 51.3 ng/ul salmon testes DNA, 50 uM zinc acetate, 200 nM TF, 25 C, 1 h; high values mean tight binding; conditions: protein: recombinant; tags: N-terminal polyhistidine and DsRed monomer fusion (pET32a); label: CyDye5-dUTP incorporated in the synthesized complementary strand; 3' TTTTT single-stranded linker to array surface; dsDNA, one strand shown
Outline: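 Binding signal here means per-feature fluorescence intensity in arbitrary units. The values were read on an Axon 4000B scanner after a custom Agilent array, double-stranded by primer extension with Cy5-dUTP, was incubated with 200 nM protein at 25 °C for 1 h in PBS with 2% BSA, salmon testes DNA and 50 µM zinc acetate, then washed. The proteins were transcription factors with an N-terminal polyhistidine tag and DsRed, expressed in E. coli BL21-CodonPlus and purified on Ni–NTA.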

Sequence	binding signal
CTCGTCTCTATCGTTTACTTATTTTGGTATGTTTTTCCAGCGGAGTCACCTAGTGCAG	10300 fluorescence intensity (a.u.)
CTCTTTTTACCTCATCTTCTCCTCTTGTTCGTCTTGCTCTCGGAGTCACCTAGTGCAG	10800 fluorescence intensity (a.u.)
ATTTGTGATGTTGTAGCCACCATGATTTACCACATTTCAGCGGAGTCACCTAGTGCAG	9260 fluorescence intensity (a.u.)
GGTGTTGGGTGTTTGTTCGTTGGTTCCGCTGCTGCTGTTGCGGAGTCACCTAGTGCAG	8180 fluorescence intensity (a.u.)
ACCTAGCAGTTTTCTGAAATGCCCAACTACCGTTCTCGTACGGAGTCACCTAGTGCAG	9560 fluorescence intensity (a.u.)
CCTAACACCACTCGTTTTCCCTGCACCTGCACCTTTTTCTCGGAGTCACCTAGTGCAG	8400 fluorescence intensity (a.u.)
GTTCTTTACCTACGCCCTCGCGCCTTCCGGGAACCGCTACCGGAGTCACCTAGTGCAG	9480 fluorescence intensity (a.u.)
AACTGGAAAAGTCTATCTGTTGTCCTCAGCCCGTCCTTCCCGGAGTCACCTAGTGCAG	9160 fluorescence intensity (a.u.)
TATGGGCTGCTTGGTGCTTTCTTGTGTAAGTGTTCTCTCACGGAGTCACCTAGTGCAG	8840 fluorescence intensity (a.u.)
TGGTTGCTACTATACTACTGATCCTTGTTATGTACCATATCGGAGTCACCTAGTGCAG	8290 fluorescence intensity (a.u.)
GGGTGGCATACAAACATGTTTTCAATTTTGCCTTTCGATCCGGAGTCACCTAGTGCAG	8600 fluorescence intensity (a.u.)
ATCGCTGCTGTCTTCTCAAATTATAATTTACCGTTTTTAACGGAGTCACCTAGTGCAG	8090 fluorescence intensity (a.u.)
GCCACCGCCCAATCTCCCTCACCAGAGCTCCACTAACCAACGGAGTCACCTAGTGCAG	8290 fluorescence intensity (a.u.)
ACACTTGCTTTCAACACGTTAGTTCTTCGTCAACGGAGCTCGGAGTCACCTAGTGCAG	8970 fluorescence intensity (a.u.)
GGGGAGGGGCGCCGATTTCTCCATCTGGCGAGCAGAGCAGCGGAGTCACCTAGTGCAG	9250 fluorescence intensity (a.u.)
GCTATCGGAGTATCGATTTTGTTGTGCTCAGTGATCTGTTCGGAGTCACCTAGTGCAG	8570 fluorescence intensity (a.u.)
CACCTAGATTAATTACTTCCTCACGAAGCACCAAGTCTTACGGAGTCACCTAGTGCAG	8830 fluorescence intensity (a.u.)
CTCCACCTCCACCATTGATTTCCTCGCGCCACTCCACTCACGGAGTCACCTAGTGCAG	12200 fluorescence intensity (a.u.)
TCCCAATTGAATATTTGCACACATTTGTTTCTTTCCTTTGCGGAGTCACCTAGTGCAG	11400 fluorescence intensity (a.u.)
CCTTAATAGTTCCTTCTGGTTCAGTGGCATTACCCAATGACGGAGTCACCTAGTGCAG	9980 fluorescence intensity (a.u.)
GTAGGAAAGCTACTCGGCCGTTGACCAAACAAATTAATGACGGAGTCACCTAGTGCAG	10800 fluorescence intensity (a.u.)
GTGTAATTGGTTTTTTTCGTCTATATTTAATGCTCTATATCGGAGTCACCTAGTGCAG	9420 fluorescence intensity (a.u.)
GTCATTTTGTCTTTTTCTCTAAGTCAAACTTCTTTAATTTCGGAGTCACCTAGTGCAG	10900 fluorescence intensity (a.u.)
CACTTCCCCGACGACTCCATCATCATGCTCACCGGTAACTCGGAGTCACCTAGTGCAG	9470 fluorescence intensity (a.u.)
CCCAGTTCCATTCCGAGTTTATGTGTTCGTCACCATCACCCGGAGTCACCTAGTGCAG	8030 fluorescence intensity (a.u.)
TCTTCTGCCGCGTCGGCTTCGCCTCCGCCTCGCCCTGCGACGGAGTCACCTAGTGCAG	8680 fluorescence intensity (a.u.)
ATCCTTCCAGGCTTTCCAGCCCACCGCTCCACCGATCTCGCGGAGTCACCTAGTGCAG	8990 fluorescence intensity (a.u.)

Sequence	binding signal
AACCCAAAACTGACGAACTCGATCGCTTCACTTTCCACCACGGAGTCACCTAGTGCAG	9290 fluorescence intensity (a.u.)
TCCAAGTCAAATTGTCACGTATGCGCCATGTCAAAGCCACCGGAGTCACCTAGTGCAG	8580 fluorescence intensity (a.u.)
AAGTACTCCCTCCGTATTTTAATGTATGACGCCGTTGACTCGGAGTCACCTAGTGCAG	9690 fluorescence intensity (a.u.)
GCCAGCCGGCATGTCGTCGTTGTCATCCACTTGCCAGCAACGGAGTCACCTAGTGCAG	8450 fluorescence intensity (a.u.)
CGGTGCCATTGGCTGGCCCATCATCGTACCAGCCAGTCCACGGAGTCACCTAGTGCAG	8540 fluorescence intensity (a.u.)
TTTTGTCATTGTCAAATTTTGATAAGTTTGTCAAAATTTTCGGAGTCACCTAGTGCAG	9080 fluorescence intensity (a.u.)
GCCTCCATAGCTAGCCCACTCGAGCCCTTCAACTTCTCGCCGGAGTCACCTAGTGCAG	11900 fluorescence intensity (a.u.)
CCTTCTATACTACTCTCTCGTTACATAATATAAAGATTTTCGGAGTCACCTAGTGCAG	8370 fluorescence intensity (a.u.)
GCCTTTTTTTTTTCTGAATTCTGAACACTTCTACTATTGACGGAGTCACCTAGTGCAG	8480 fluorescence intensity (a.u.)
AGTTGCATCATCAACTCCATCTTTAATACTTCCCAACTCACGGAGTCACCTAGTGCAG	8980 fluorescence intensity (a.u.)
GCAACAGCCAGCCCACCACCGCTTCCTCGCTCTGATGTTACGGAGTCACCTAGTGCAG	10300 fluorescence intensity (a.u.)
GGACAACGATTTTCCTAGTTGTGGGAGGGTGGCCGGCTCGCGGAGTCACCTAGTGCAG	9540 fluorescence intensity (a.u.)
TCGCCCGTCACCATCCGCATTCCCAGCAAGTTCCCAGGAGCGGAGTCACCTAGTGCAG	8580 fluorescence intensity (a.u.)
TTTCTTCATCACTTGCTGCTCTGTTACATTGCTTCGTGCACGGAGTCACCTAGTGCAG	10800 fluorescence intensity (a.u.)
GGTTAGGTATAGATTCTCATTGTTGATTTTTTACTCTCCTCGGAGTCACCTAGTGCAG	8740 fluorescence intensity (a.u.)
AGGAAAGAGAAGGAGCTAGCTGTGTGAAGTGTGTAGTGTGCGGAGTCACCTAGTGCAG	8270 fluorescence intensity (a.u.)
CGGCACCACTCTCTGTTCACCACGGCTCAGGCATTAAAGACGGAGTCACCTAGTGCAG	8290 fluorescence intensity (a.u.)
CGGCGGTAGCACGGTCCTCAGCCACGCCCTTTGTTGCACGCGGAGTCACCTAGTGCAG	8090 fluorescence intensity (a.u.)
ACCCATTCCACTCGCCCCTCAACAAAACACCTCTAAAAGTCGGAGTCACCTAGTGCAG	9600 fluorescence intensity (a.u.)
TGTAAGACTTTCTAGCATTGCCCACATTCATTTAGATGTTCGGAGTCACCTAGTGCAG	8080 fluorescence intensity (a.u.)
TAATATTAATAAATAAAAAACCAGCGGTCGAACCGTTGACCGGAGTCACCTAGTGCAG	13000 fluorescence intensity (a.u.)
CCTTCGCTGCCACCATCTCCTTCGCCGCCGGGCACCATCGCGGAGTCACCTAGTGCAG	11000 fluorescence intensity (a.u.)
TCCCCGTCCCAGTCGCCGCCGTCCCCATCCCCAGCCATGTCGGAGTCACCTAGTGCAG	8910 fluorescence intensity (a.u.)
TCAGAGATTCCAGCTTTGGTTAGTGGCTCGTGTGTCGTTTCGGAGTCACCTAGTGCAG	8380 fluorescence intensity (a.u.)
ATATAGGGTATTGTGGTTGAGTGATACGAAATAGATTGGACGGAGTCACCTAGTGCAG	8570 fluorescence intensity (a.u.)
GCCACTGTCGCCGTCCTGTGCCGATGTCGACATCCGCCTCCGGAGTCACCTAGTGCAG	8890 fluorescence intensity (a.u.)
TCACTGCAACATTTTTTTTGTTTGGAAAAATCATCATCATCGGAGTCACCTAGTGCAG	8680 fluorescence intensity (a.u.)
